The record followed here is article doi:10.1101/2020.05.24.113076.

Sequences of proteins named here, by UniProt entry; tags and fusion partners are left off.
UniProt Q9QVP9: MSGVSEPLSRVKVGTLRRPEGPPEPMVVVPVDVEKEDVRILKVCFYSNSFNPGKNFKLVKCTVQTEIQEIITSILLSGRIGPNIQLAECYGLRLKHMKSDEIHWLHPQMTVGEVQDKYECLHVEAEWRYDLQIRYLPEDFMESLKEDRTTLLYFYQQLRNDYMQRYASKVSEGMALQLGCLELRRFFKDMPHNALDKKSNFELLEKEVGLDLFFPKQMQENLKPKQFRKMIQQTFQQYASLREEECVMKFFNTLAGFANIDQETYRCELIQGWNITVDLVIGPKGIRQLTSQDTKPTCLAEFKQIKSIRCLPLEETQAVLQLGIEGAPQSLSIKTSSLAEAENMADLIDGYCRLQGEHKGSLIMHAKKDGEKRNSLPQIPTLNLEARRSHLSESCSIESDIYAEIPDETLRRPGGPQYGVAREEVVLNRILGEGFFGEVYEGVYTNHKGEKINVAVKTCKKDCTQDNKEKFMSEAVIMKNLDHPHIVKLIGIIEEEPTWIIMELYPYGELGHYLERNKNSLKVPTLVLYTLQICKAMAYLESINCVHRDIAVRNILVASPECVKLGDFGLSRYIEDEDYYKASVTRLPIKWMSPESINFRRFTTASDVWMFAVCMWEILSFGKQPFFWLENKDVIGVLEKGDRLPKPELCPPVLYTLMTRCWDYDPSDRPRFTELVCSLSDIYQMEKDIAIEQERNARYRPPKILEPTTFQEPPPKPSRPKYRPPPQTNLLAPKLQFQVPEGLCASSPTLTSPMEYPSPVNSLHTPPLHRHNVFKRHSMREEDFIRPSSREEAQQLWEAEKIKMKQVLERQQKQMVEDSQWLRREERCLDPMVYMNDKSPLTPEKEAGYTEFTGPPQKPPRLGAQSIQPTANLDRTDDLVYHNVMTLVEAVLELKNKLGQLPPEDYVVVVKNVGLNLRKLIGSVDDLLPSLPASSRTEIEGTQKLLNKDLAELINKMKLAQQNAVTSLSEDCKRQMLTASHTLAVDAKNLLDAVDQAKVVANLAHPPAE
UniProt P56477: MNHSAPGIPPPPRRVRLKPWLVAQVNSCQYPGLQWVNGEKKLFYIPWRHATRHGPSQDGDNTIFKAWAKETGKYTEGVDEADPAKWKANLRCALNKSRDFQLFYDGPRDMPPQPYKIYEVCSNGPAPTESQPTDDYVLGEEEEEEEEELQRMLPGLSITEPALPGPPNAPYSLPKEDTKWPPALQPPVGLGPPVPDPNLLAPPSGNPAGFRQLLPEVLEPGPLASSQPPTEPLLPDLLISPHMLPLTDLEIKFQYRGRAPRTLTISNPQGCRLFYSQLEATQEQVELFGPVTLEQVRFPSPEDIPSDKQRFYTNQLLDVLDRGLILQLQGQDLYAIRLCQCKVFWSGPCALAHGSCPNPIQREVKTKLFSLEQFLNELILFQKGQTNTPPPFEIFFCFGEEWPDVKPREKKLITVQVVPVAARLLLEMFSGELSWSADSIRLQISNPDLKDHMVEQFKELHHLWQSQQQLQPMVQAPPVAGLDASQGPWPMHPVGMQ

These are yes or no findings as the source states them, for the method shown. Binding seen in cells or lysates may run through a third protein. Some results given as binding are weak or reduced against the parent protein; the word gives no strength.

This assay has as its target PYK2, endogenous in RAW264.7 macrophages (mouse (endogenous in RAW264.7)) (UniProt Q9QVP9). Briefly: co-IP.

For “IRF5, endogenous in RAW264.7 macrophages (from UniProt P56477 1-497)”, the binding result is listed as “binds”.
